The values below come from publication PMC10132618.

The chains behind the UniProt entries cited, without tags or fusion partners.
UniProt P11746: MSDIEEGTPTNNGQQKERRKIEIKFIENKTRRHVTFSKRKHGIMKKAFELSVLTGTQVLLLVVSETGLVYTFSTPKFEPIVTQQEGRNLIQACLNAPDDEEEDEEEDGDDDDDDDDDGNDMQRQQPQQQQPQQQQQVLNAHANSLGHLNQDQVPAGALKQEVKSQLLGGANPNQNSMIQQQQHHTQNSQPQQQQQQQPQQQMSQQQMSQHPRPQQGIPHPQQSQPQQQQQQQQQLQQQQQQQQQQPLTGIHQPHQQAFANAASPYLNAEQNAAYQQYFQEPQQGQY

The target in the experiment is T1, Csm1-flag (S. cerevisiae) (UniProt P25651).
T1 sequence: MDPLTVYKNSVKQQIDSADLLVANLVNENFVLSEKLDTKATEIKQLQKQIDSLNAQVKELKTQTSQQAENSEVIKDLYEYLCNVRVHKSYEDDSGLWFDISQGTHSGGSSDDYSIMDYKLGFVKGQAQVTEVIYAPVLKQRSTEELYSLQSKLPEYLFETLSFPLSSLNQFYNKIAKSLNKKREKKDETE
Nature of the experiment: co-IP; yeast cell lysate; Mcm1-myc and Csm1-flag, immunoblot; loaded inputs are 5% of the lysate used for the IP. In general terms: Immunoblotting shows a protein as a band on a membrane.

Results are given in words; binding and its absence hold for the method and conditions named. Binding seen in cells or lysates may run through a third protein. Some results given as binding are weak or reduced against the parent protein; the word gives no strength. Where a sequence is shown, tags or fusion partners need not be part of it.

Mcm1-myc (from UniProt P11746 1-286): the binding entry was “binds”.
